We go through 42 sequences from paper PMC7819943, “Rice protein-binding microarrays: a tool to detect cis-acting elements near promoter regions in rice”.

Some of the results follow.

The assay addresses T1, OsSMF1 (Oryza sativa, UniProt Q6ZLB0 1-436).
T1 sequence: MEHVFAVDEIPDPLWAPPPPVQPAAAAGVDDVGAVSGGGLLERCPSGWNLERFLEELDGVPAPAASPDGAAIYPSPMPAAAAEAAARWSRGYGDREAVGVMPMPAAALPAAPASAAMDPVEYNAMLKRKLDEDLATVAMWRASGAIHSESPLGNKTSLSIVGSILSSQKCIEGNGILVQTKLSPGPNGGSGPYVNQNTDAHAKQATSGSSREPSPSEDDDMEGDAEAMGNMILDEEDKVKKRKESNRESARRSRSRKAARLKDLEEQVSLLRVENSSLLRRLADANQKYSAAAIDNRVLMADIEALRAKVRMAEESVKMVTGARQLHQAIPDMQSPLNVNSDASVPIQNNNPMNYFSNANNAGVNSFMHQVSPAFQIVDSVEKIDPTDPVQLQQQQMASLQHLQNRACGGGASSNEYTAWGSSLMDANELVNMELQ
Kind of assay: protein-binding microarray (RPBM); PBS, 2% BSA, 51.3 ng/ul salmon testes DNA, 50 uM zinc acetate, 200 nM TF, 25 C, 1 h; high values mean tight binding. The following applies: protein: recombinant; tags: N-terminal polyhistidine and DsRed monomer fusion (pET32a); chain copies: 2; label: CyDye5-dUTP incorporated in the synthesized complementary strand; 3' TTTTT single-stranded linker to array surface; dsDNA, one strand shown. Summed up:
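Per-feature fluorescence intensity (arbitrary units), read on an Axon 4000B scanner, is the binding signal. Transcription factors carrying an N-terminal polyhistidine tag and DsRed fusion were expressed in E. coli BL21-CodonPlus and purified on Ni–NTA. A custom Agilent array, made double-stranded by primer extension with Cy5-dUTP and blocked with 2% BSA, was incubated with 200 nM protein in PBS, 2% BSA, salmon testes DNA and 50 µM zinc acetate at 25 °C for 1 h and then washed.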
For “AACTAGATTCGCTATTGCTATCCACATCCTAGATGGTCATCGGAGTCACCTAGTGCAG”, the binding signal was 3630 fluorescence intensity (a.u.).

As for “TATATATATATATATATATGGGTGGTGTTCTTTTCTCTGGCGGAGTCACCTAGTGCAG”, the binding signal is 3790 fluorescence intensity (a.u.). As to “AGTTAAAACCAAATGAATATCTGCCACGCCATTGACCAAACGGAGTCACCTAGTGCAG”, the binding signal was 4760 fluorescence intensity (a.u.). As for “GAAGAGCATTACGCTATGCATGACGTATTGCATGATTTGGCGGAGTCACCTAGTGCAG”, the binding signal is 9150 fluorescence intensity (a.u.). The same measure for “GGGACGGGAGGGTGGCGATGGCCGCGGAGACGGCTTCAGGCGGAGTCACCTAGTGCAG”: 3550 fluorescence intensity (a.u.).

On to “TCTGAAGAAAGGAGGAGGACAGGGTGGTGGTCAACAGGGCCGGAGTCACCTAGTGCAG”, for which the binding signal is 29700 fluorescence intensity (a.u.). As to “CCAGCATCGCCGGCAGATCCACGTCGAGCATCGCGGCAGGCGGAGTCACCTAGTGCAG”, the binding signal was 5190 fluorescence intensity (a.u.).

As to “CGCGCGAGAACCGAAACCGCGCGACGCGCGGCCACGTCCCCGGAGTCACCTAGTGCAG”, the binding signal was 5700 fluorescence intensity (a.u.). Consider “GTCCCAGCCGCATGTCACTGCCACTCTGCACTCTTCTCTCCGGAGTCACCTAGTGCAG”, for which the binding signal was 3840 fluorescence intensity (a.u.). The same measure for “TACACTTGTGATGTCATGCCAGTAATAATGCTGTAATGGTCGGAGTCACCTAGTGCAG”: 4170 fluorescence intensity (a.u.); for “CCCCTGCTGATGTGTTGTGTCATCGTGTGCTTACGAGAAACGGAGTCACCTAGTGCAG”: 8010 fluorescence intensity (a.u.); for “TCTCCGCCGTGCTGATCGCGTGGAGCCGAGGAGAGGAGCGCGGAGTCACCTAGTGCAG”: 3920 fluorescence intensity (a.u.).

On to “TTAAACTGTCTACTATACGCGCGCGTGGAACAACCGATGGCGGAGTCACCTAGTGCAG”, for which the binding signal was 3280 fluorescence intensity (a.u.).

Regarding “GGAAGCAGATCTTGTTGGAAATAATCTTGTCATTTGTGTGCGGAGTCACCTAGTGCAG”, the binding signal is 3700 fluorescence intensity (a.u.). Regarding “CCCTCGCCGCGCGGCGCCGCCGCCGCCGCGGTGGCCACCACGGAGTCACCTAGTGCAG”, the binding signal was 4520 fluorescence intensity (a.u.).

For the sequence “TCGACCGATACTTCGCCGTCGTCGCCGTATATGTCATGTCCGGAGTCACCTAGTGCAG”, the binding signal was 3660 fluorescence intensity (a.u.). The same measure for “AAGGCTATGGTACTTGGGCCAAAACGTGTACAGATGCTCTCGGAGTCACCTAGTGCAG”: 3780 fluorescence intensity (a.u.); for “GCTAGCCCCACCACGTAGTCAGAAATCATGGGTGTATCTGCGGAGTCACCTAGTGCAG”: 5270 fluorescence intensity (a.u.); for “TAATACTGCTGGTAATCTGGCACCTTTTGGAAGTAAACTCCGGAGTCACCTAGTGCAG”: 3320 fluorescence intensity (a.u.). With “CTGGGAGTGGAACGTTGCGTCGATGCACTCGTCAGCGGTCCGGAGTCACCTAGTGCAG”, the binding signal was 4670 fluorescence intensity (a.u.). “GAATGGTTGTTGATATGTTAGGATCAGCCACCTGACTTTGCGGAGTCACCTAGTGCAG”: the binding signal was 3300 fluorescence intensity (a.u.). Regarding “CAACATCCTGACATACACCTCACACACACTCCCCTTCTTGCGGAGTCACCTAGTGCAG”, the binding signal is 3160 fluorescence intensity (a.u.). With “TGTACACGCGCAGGGCGGCCCTGGCGTTGCTGACGTGGCGCGGAGTCACCTAGTGCAG”, the binding signal was 42500 fluorescence intensity (a.u.). The same measure for “TTATAAGAACAAATCCTGGGCAGTTGTATTGCCACATCAACGGAGTCACCTAGTGCAG”: 4220 fluorescence intensity (a.u.).

Turning to “TGGTCCCACCTGTCATACACACATTACGTCTTAGAGTCCGCGGAGTCACCTAGTGCAG”, the binding signal was 4320 fluorescence intensity (a.u.). Take “AGGCGCGCGCGCGGCCATCGGCGCGACGTAATCAGCGTCCCGGAGTCACCTAGTGCAG”: the binding signal was 4280 fluorescence intensity (a.u.). For “TTCAAACTGATTGTGACGTGTAACCAATTTCATTTGTCACCGGAGTCACCTAGTGCAG”, the binding signal is 18700 fluorescence intensity (a.u.). For the sequence “CCGGAGCCAGTAGTAGCGTTGAGTCGTTGTCGCGAGATGGCGGAGTCACCTAGTGCAG”, the binding signal was 3260 fluorescence intensity (a.u.). The same measure for “GAGCCGTGCGGCTCCGGCTCACTGGCTCCACACGTGGCGACGGAGTCACCTAGTGCAG”: 9770 fluorescence intensity (a.u.); for “CTTTGCTTTGCGATTCGCGCTCTGACGTGCGCGGGATCGGCGGAGTCACCTAGTGCAG”: 6150 fluorescence intensity (a.u.). As to “TAACTGGCGTGTCAGTATTATCTTGCCACGTTACCCTAGCCGGAGTCACCTAGTGCAG”, the binding signal is 6380 fluorescence intensity (a.u.). The same measure for “AATTACACCGAAGGTCCCTCAACTTGTCATCGGGATAAAACGGAGTCACCTAGTGCAG”: 31200 fluorescence intensity (a.u.). With “TCCCCACATCACCCAACACGAGCTCACCACCACCACCACCCGGAGTCACCTAGTGCAG”, the binding signal was 3500 fluorescence intensity (a.u.). The same measure for “GTGTTTCTGACATGCTATGAAATGACTCCTGGTCGACATGCGGAGTCACCTAGTGCAG”: 3500 fluorescence intensity (a.u.); for “TCTCCTCCGCCGTCGCGCCACGTCCCGCACAGCGCTCCTCCGGAGTCACCTAGTGCAG”: 8160 fluorescence intensity (a.u.). In the case of “AGCAGTGGCAAACTTCTCAGTCATGTCCATGTCATCAGGCCGGAGTCACCTAGTGCAG”, the binding signal is 13900 fluorescence intensity (a.u.). “CCACGGGTTCTTCCTCGATGCCTTCTCCGGCGCCGTCCGGCGGAGTCACCTAGTGCAG”: the binding signal was 45300 fluorescence intensity (a.u.). The same measure for “CGTGGTTGCTACAGCGCTACACGTTCGCGTTTTGCACGCGCGGAGTCACCTAGTGCAG”: 3180 fluorescence intensity (a.u.). Consider “CTGGTTGCGGCTGCGCTTTTCGGCACTGTCGGTGTCAGCTCGGAGTCACCTAGTGCAG”, for which the binding signal was 3600 fluorescence intensity (a.u.).

For the sequence “ATTTCCCCGAGGTCCACGAAGCGATCCACGTAGTACTACTCGGAGTCACCTAGTGCAG”, the binding signal was 5120 fluorescence intensity (a.u.). Turning to “ACAATATCATGGGCTTATCACTAAAACACACCTTTTAGAACGGAGTCACCTAGTGCAG”, the binding signal is 22600 fluorescence intensity (a.u.). Consider “TATGTACACTGCGTGCTACGAGCCAATGACGTGTAGCCTACGGAGTCACCTAGTGCAG”, for which the binding signal was 13700 fluorescence intensity (a.u.).
